Source: patent publication US20160279299A1, “SILK FIBROIN-BASED FLUID DELIVERY SYSTEMS AND DEVICES” (TRUSTEES OF TUFTS COLLEGE, priority 2013, published 2016)
For at least one compound, name, drawing or mass did not settle the structure.

System: fat grafts (human lipoaspirate)
Experiment: In-vivo murine model of adipose tissue reconstruction: lipoaspirate fat graft perfused via silk fibroin-based catheter and osmotic pump
Details: dexamethasone ~1, ~2, ~3 mg/ml at ~0.11 μL/hr, 28 days post-implantation, gas pycnometry
Experimental: Female athymic nude mice were divided into 3 groups: animals treated with insulin (n=24), dexamethasone (n=15), or PBS vehicle (n=10). The groups were further subdivided into four different doses for insulin (e.g., ˜100 μg, ˜300 μg, ˜650 μg, or ˜1000 μg) or three different doses for dexamethasone (e.g., ˜1 mg/ml, ˜2 mg/ml, ˜3 mg/ml). Osmotic pumps that can deliver a fluid with a selected flow rate for a period of time were prepared with the insulin or dexamethasone solution or PBS vehicle. In this Example, ALZET 4-week osmotic pumps with a selected flow rate of ˜0.11 μl/hr were used. One end of the silk fibroin-based catheter was connected to the pump, e.g., using medical grade silicone (e.g., Dow Corning) (FIG. 8A). The silk catheter/pump construct was primed for 48 hours at 37° C., per manufacturer's instructions.
Lipoaspirate grafts were obtained from human subcutaneous abdominal fat during scheduled elective surgery and processed for injection under laboratory conditions. Lipoaspirate was loaded into ˜1 ml syringes in sterile fashion. […]
At 4 weeks post surgery, the mice were euthanized using carbon dioxide asphyxiation followed by cervical dislocation, and graft tissue was isolated from the bilateral dorsal injection sites. Explants were assessed for mass on a standard laboratory balance, and volume was measured using a gas pycnometer (Accupyc II 1340; Micrometrics, Atlanta, Ga.). […]

`C[C@@H]1C[C@H]2[C@@H]3CCC4=CC(=O)C=C[C@]4(C)[C@@]3(F)[C@@H](O)C[C@]2(C)[C@@]1(O)C(=O)CO` [dexamethasone] was tested, and the “volume of fat grafts, differences between groups” value was “no statistically significant differences detected between groups”.
